In paper PMC3814354, “Interaction of bacterial fatty-acid-displaced regulators with DNA is interrupted by tyrosine phosphorylation in the helix-turn-helix domain”:
Results are given in words; binding and its absence hold for the method and conditions named. For some assays here: Binding calls can cover weak binding; strength is not graded here.

How the values were obtained:
[1] = target: PtkA, protein-tyrosine kinase (BY-kinase) (B. subtilis); assay: two-hybrid; yeast two-hybrid, Gal4; TkmA or PtkA fused to the Gal4 DNA-binding domain screened against the B. subtilis library; mated diploid cells, growth on selective medium SD-LUH; specificity test with empty vectors
[2] = target: TkmA, transmembrane activator (modulator) of the protein-tyrosine kinase PtkA (B. subtilis); assay: as above

- binding [1]: no binding
- binding [2]: binds
B1: C-terminal domain (residues 101–194) of the fatty-acid-displaced regulator FatR (domain or fragment, UniProt O08335 101-194)
chain: LFFLETKKDAHYLNHTSKKMIENLTQMLDDYFNKGKAEGVIRSLPSNVLIAIVLGAFLKIYQLVQTGDIEMDTDLITELEQCCWDAIKLHSSQK
